# Assay results from patent US20230190950A1 (Cidara Therapeutics, Inc., priority 2017, published 2023).
# Assay: general procedure: solution-phase peptide synthesis; HATU/DIEA (EDC/HOBt for Int-5b)
# Conditions: coupling step, two steps
substance,measurement,value
penta-Boc-PMB-decapeptide,step yield,94% (two steps)
